Data as given in PubChem BioAssay AID1053208 (Peter MacCallum Cancer Centre, 2014)

Aim: 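Find knock-downs that sensitise mouse osteosarcoma cells to doxorubicin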 (primary screen)
System: mouse osteosarcoma cells, early-passage culture from an engineered mouse model of fibroblastic bone tumour
Reagent: siRNA pool against mouse genes, 40 nM
Time to read-out: about 120 h (48 h before drug, then 72 h with drug)
Challenge: doxorubicin 100 nM for 72 h, roughly 30-40% inhibitory dose
Measurement: 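Viability read as ATP luminescence after 72 h of 100 nM doxorubicin or none, duplicate wells averaged, scaled to non-targeting siRNA, then expressed as robust z-scores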
Reading the numbers: viability z-score with doxorubicin and doxorubicin viability vs non-targeting: higher = more viable cells under doxorubicin; viability z-score without drug: higher = more viable cells with knock-down alone; z-score of drug to no-drug ratio: higher = less drug sensitisation by knock-down
Active means: 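a pool counts as active when its viability z-score with doxorubicin is -2 or below and its z-score without drug lies between -2 and 2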
The whole screen tested about 17,000 reagents; this is a part drawn at random. 788 of all reagents (4.7%) count as active. 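Calls rest on z-score classes alone; an extra cut-off of viability at most 70% of control was not applied to them.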 A number with no mark means an inactive call.

Target gene | PubChem SID | combined z-score class | viability z-score with doxorubicin | viability z-score without drug | z-score of drug to no-drug ratio | doxorubicin viability vs non-targeting
Armh3 (GeneID 71617) | SID152281001 | no change with or without drug | -0.11 | -0.51 | 0.34 | 0.93
3300002I08Rik (GeneID 69277) | SID152309394 | no change with or without drug | -1.35 | -0.51 | -1.01 | 0.82
Atg10 (GeneID 66795) | SID152340439 | no change with or without drug | -1.69 | -0.84 | -1.12 | 0.79
Zfp2 (GeneID 22678) | SID152327091 | no change with or without drug | 1.57 | 1.52 | 0.67 | 1.08
Fastkd1 (GeneID 320720) | SID152322634 | no change with or without drug | 1.8 | 0.51 | 1.57 | 1.1
Slc24a5 (GeneID 317750) | SID152322434 | no change with or without drug | 0.9 | 1.52 | 0 | 1.02
Plxna4 (GeneID 243743) | SID152279258 | high cell count with doxorubicin only | 2.25 | 0.84 | 1.8 | 1.14
Dnajb11 (GeneID 67838) | SID152300863 | no change with or without drug | 0 | 0.51 | -0.22 | 0.94
Irf6 (GeneID 54139) | SID152291143 | no change with or without drug | 0.34 | 1.01 | -0.22 | 0.97
Aamdc (GeneID 66273) | SID152298733 | high cell count with doxorubicin only | 2.7 | 1.52 | 1.69 | 1.18
Cby2 (GeneID 67926) | SID152317967 | no change with or without drug | -0.45 | -1.52 | 0.79 | 0.9
Pank4 (GeneID 269614) | SID152329231 | high cell count with doxorubicin only | 2.14 | -0.51 | 2.81 | 1.13
Slc35f2 (GeneID 72022) | SID152324479 | no change with or without drug | 0.9 | -0.51 | 1.46 | 1.02
Or8b35 (GeneID 258413) | SID152338389 | no change with or without drug | -0.9 | -0.67 | -0.34 | 0.86
Sprr2a1 (GeneID 20755) | SID152273721 | low cell count with doxorubicin only (active) | -2.02 | 0.34 | -2.25 | 0.76
Atat1 (GeneID 73242) | SID152261979 | no change with or without drug | 0.22 | 1.85 | -0.79 | 0.96
Mgat4a (GeneID 269181) | SID152276097 | no change with or without drug | -0.9 | 0.67 | -1.24 | 0.86
Anln (GeneID 68743) | SID152319148 | low cell count without drug only | -1.46 | -2.53 | 0.34 | 0.81
Clec1a (GeneID 243653) | SID152294678 | no change with or without drug | 0.11 | 1.52 | -0.79 | 0.95
Ccr1l1 (GeneID 12770) | SID152294554 | no change with or without drug | -0.9 | 1.18 | -1.57 | 0.86
Paox (GeneID 212503) | SID152332365 | no change with or without drug | -1.12 | -0.84 | -0.56 | 0.84
Nsg2 (GeneID 18197) | SID152275385 | no change with or without drug | 1.01 | 1.52 | 0.11 | 1.03
Paral1 (GeneID 228642) | SID152336827 | no change with or without drug | -0.34 | 0.17 | -0.34 | 0.91
Dlg4 (GeneID 13385) | SID152268584 | no change with or without drug | 1.91 | -0.34 | 2.36 | 1.11
Hba-x (GeneID 15126) | SID152297330 | no change with or without drug | -0.22 | -0.67 | 0.34 | 0.92
Or4a75 (GeneID 258787) | SID152314617 | no change with or without drug | -1.12 | -0.51 | -0.79 | 0.84
Angel2 (GeneID 52477) | SID152329272 | no change with or without drug | -1.57 | 0.51 | -1.8 | 0.8
9230101D24 | SID152290600 | no change with or without drug | -0.67 | 0 | -0.56 | 0.88
Pcdhgc5 (GeneID 93708) | SID152343060 | no change with or without drug | -1.91 | -0.51 | -1.57 | 0.77
Chdh (GeneID 218865) | SID152267621 | no change with or without drug | -1.8 | -0.67 | -1.35 | 0.78
Cd274 (GeneID 60533) | SID152310452 | high cell count without drug only | -0.22 | 2.19 | -1.46 | 0.92
Irx4 (GeneID 50916) | SID152292995 | no change with or without drug | 0.22 | -0.51 | 0.67 | 0.96
Mettl3 (GeneID 56335) | SID152327738 | no change with or without drug | -1.8 | 0.34 | -2.02 | 0.78
Lysmd2 (GeneID 70082) | SID152295711 | no change with or without drug | 0.45 | -0.17 | 0.67 | 0.98
Atp6v1h (GeneID 108664) | SID152335781 | no change with or without drug | -0.79 | -0.84 | -0.11 | 0.87
Zfp68 (GeneID 24135) | SID152336611 | no change with or without drug | 1.35 | 0.34 | 1.24 | 1.06
Pex14 (GeneID 56273) | SID152289907 | no change with or without drug | 0.9 | 0.67 | 0.56 | 1.02
Natd1 (GeneID 24083) | SID152289727 | no change with or without drug | -0.67 | -0.84 | 0 | 0.88
Xpo1 (GeneID 103573) | SID152342330 | no change with or without drug | -1.12 | -0.51 | -0.79 | 0.84
Myot (GeneID 58916) | SID152337083 | high cell count without drug only | 1.35 | 2.36 | -0.11 | 1.06
Ago4 (GeneID 76850) | SID152274876 | no change with or without drug | -1.8 | 0.67 | -2.14 | 0.78
Btg1 (GeneID 12226) | SID152283591 | no change with or without drug | -1.12 | -0.51 | -0.79 | 0.84
Dse (GeneID 212898) | SID152270617 | no change with or without drug | -0.67 | -1.18 | 0.22 | 0.88
Ube2e2 (GeneID 218793) | SID152267940 | no change with or without drug | 1.46 | 0.17 | 1.46 | 1.07
Kcnmb2 (GeneID 72413) | SID152305207 | no change with or without drug | -1.35 | -0.17 | -1.24 | 0.82
Abce1 (GeneID 24015) | SID152260727 | no change with or without drug | -0.67 | -0.51 | -0.22 | 0.88
Cxcr6 (GeneID 80901) | SID152325768 | no change with or without drug | 0.34 | -0.51 | 0.79 | 0.97
B3galt2 (GeneID 26878) | SID152268773 | no change with or without drug | 0.45 | 0.84 | 0 | 0.98
Cyp2j13 (GeneID 230459) | SID152314097 | no change with or without drug | 0 | 0.17 | 0 | 0.94
Fbxo24 (GeneID 71176) | SID152269702 | no change with or without drug | 0.22 | 0.51 | 0 | 0.96
Cyp4b1 (GeneID 13120) | SID152267407 | no change with or without drug | 0.9 | 0.17 | 0.9 | 1.02
Or6c76 (GeneID 258321) | SID152285192 | no change with or without drug | 0.45 | 0.51 | 0.22 | 0.98
Or13a18 (GeneID 18345) | SID152260503 | no change with or without drug | -0.34 | -1.69 | 1.01 | 0.91
Zfp955a (GeneID 77652) | SID152270615 | no change with or without drug | 0 | -1.18 | 1.01 | 0.94
Sp140l2 (GeneID 620078) | SID152310051 | no change with or without drug | 1.46 | 0.17 | 1.46 | 1.07
Ift52 (GeneID 245866) | SID152274011 | no change with or without drug | 0 | -0.67 | 0.56 | 0.94
Nedd4l (GeneID 83814) | SID152283503 | high cell count with and without drug | 2.36 | 2.02 | 1.01 | 1.15
Strap (GeneID 20901) | SID152283714 | no change with or without drug | -1.01 | -0.17 | -0.9 | 0.85
Akap19 (GeneID 67080) | SID152307504 | no change with or without drug | -1.01 | -0.17 | -0.9 | 0.85
Ptbp1 (GeneID 19205) | SID152307885 | no change with or without drug | 0 | 1.01 | -0.56 | 0.94
Gadd45g (GeneID 23882) | SID152341414 | no change with or without drug | 0.11 | -0.84 | 0.9 | 0.95
Gpr83 (GeneID 14608) | SID152269984 | no change with or without drug | -1.35 | 0.51 | -1.57 | 0.82
H3c11 (GeneID 319153) | SID152276815 | no change with or without drug | 0.22 | 0 | 0.34 | 0.96

A portion taken from the entries so far:
Target gene | PubChem SID | combined z-score class | viability z-score with doxorubicin | viability z-score without drug | z-score of drug to no-drug ratio | doxorubicin viability vs non-targeting
Fastkd1 (GeneID 320720) | SID152322634 | no change with or without drug | 1.8 | 0.51 | 1.57 | 1.1
Slc24a5 (GeneID 317750) | SID152322434 | no change with or without drug | 0.9 | 1.52 | 0 | 1.02
Plxna4 (GeneID 243743) | SID152279258 | high cell count with doxorubicin only | 2.25 | 0.84 | 1.8 | 1.14
Dnajb11 (GeneID 67838) | SID152300863 | no change with or without drug | 0 | 0.51 | -0.22 | 0.94
Irf6 (GeneID 54139) | SID152291143 | no change with or without drug | 0.34 | 1.01 | -0.22 | 0.97
Aamdc (GeneID 66273) | SID152298733 | high cell count with doxorubicin only | 2.7 | 1.52 | 1.69 | 1.18
Cby2 (GeneID 67926) | SID152317967 | no change with or without drug | -0.45 | -1.52 | 0.79 | 0.9
